# These are yes or no findings as the source states them, for the method shown. In cells and extracts the contact can be indirect. Here binding means that the protein was enriched with, or labelled near, the bait; the list need not be complete.
# The chains behind the UniProt entries cited, without tags or fusion partners. Where a name states a change or a piece, a line headed by the entry shows the natural chain unless it says otherwise. A line that says so, or that is headed by a name, gives the form on record, which may keep a tag or linker.
# UniProt Q3TKT4: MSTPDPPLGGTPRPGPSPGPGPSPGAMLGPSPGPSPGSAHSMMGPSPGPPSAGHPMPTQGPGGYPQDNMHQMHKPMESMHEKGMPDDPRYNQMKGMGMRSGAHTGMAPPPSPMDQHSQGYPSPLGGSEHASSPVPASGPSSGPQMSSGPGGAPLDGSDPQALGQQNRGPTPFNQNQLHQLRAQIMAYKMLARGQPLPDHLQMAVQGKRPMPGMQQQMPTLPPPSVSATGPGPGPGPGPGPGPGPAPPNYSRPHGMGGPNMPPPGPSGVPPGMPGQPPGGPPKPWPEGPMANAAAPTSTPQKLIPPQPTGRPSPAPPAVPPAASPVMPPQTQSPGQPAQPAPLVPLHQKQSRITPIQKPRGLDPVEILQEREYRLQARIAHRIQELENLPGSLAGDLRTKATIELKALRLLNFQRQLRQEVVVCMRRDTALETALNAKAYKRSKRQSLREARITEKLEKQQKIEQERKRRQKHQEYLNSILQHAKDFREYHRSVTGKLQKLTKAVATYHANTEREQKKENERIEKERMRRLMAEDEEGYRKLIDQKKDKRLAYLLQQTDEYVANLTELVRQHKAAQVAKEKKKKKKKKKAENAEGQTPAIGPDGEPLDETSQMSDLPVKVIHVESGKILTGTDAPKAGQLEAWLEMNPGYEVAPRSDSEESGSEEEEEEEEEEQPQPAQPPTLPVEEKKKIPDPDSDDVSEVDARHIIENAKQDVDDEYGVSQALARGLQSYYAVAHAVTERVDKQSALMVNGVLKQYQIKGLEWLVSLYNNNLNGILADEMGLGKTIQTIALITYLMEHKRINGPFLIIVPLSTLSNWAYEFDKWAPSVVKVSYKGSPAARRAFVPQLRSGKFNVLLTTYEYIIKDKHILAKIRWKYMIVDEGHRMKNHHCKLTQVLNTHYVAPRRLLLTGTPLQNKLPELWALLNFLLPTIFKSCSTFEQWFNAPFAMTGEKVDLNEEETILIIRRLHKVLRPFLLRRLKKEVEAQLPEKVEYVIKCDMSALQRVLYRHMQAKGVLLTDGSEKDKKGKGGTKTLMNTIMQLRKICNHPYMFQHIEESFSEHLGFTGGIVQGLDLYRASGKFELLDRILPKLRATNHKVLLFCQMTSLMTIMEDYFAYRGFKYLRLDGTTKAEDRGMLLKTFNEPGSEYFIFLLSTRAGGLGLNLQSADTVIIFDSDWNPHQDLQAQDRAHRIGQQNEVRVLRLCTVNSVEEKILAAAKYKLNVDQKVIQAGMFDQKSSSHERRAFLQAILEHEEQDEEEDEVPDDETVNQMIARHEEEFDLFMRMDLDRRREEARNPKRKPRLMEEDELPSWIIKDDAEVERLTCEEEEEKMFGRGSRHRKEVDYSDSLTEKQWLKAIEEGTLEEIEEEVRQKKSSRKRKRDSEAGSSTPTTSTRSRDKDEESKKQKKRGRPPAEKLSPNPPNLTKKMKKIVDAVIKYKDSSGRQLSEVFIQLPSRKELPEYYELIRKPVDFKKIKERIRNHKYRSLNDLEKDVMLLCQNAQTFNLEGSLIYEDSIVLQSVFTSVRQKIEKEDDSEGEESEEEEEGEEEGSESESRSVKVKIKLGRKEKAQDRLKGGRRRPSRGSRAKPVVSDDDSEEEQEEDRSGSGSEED
# Smarca4/Brg1 with the AT-hook deleted (ΔAT), HA-tagged (mouse (endogenous in mESCs)) (Q3TKT4, form named): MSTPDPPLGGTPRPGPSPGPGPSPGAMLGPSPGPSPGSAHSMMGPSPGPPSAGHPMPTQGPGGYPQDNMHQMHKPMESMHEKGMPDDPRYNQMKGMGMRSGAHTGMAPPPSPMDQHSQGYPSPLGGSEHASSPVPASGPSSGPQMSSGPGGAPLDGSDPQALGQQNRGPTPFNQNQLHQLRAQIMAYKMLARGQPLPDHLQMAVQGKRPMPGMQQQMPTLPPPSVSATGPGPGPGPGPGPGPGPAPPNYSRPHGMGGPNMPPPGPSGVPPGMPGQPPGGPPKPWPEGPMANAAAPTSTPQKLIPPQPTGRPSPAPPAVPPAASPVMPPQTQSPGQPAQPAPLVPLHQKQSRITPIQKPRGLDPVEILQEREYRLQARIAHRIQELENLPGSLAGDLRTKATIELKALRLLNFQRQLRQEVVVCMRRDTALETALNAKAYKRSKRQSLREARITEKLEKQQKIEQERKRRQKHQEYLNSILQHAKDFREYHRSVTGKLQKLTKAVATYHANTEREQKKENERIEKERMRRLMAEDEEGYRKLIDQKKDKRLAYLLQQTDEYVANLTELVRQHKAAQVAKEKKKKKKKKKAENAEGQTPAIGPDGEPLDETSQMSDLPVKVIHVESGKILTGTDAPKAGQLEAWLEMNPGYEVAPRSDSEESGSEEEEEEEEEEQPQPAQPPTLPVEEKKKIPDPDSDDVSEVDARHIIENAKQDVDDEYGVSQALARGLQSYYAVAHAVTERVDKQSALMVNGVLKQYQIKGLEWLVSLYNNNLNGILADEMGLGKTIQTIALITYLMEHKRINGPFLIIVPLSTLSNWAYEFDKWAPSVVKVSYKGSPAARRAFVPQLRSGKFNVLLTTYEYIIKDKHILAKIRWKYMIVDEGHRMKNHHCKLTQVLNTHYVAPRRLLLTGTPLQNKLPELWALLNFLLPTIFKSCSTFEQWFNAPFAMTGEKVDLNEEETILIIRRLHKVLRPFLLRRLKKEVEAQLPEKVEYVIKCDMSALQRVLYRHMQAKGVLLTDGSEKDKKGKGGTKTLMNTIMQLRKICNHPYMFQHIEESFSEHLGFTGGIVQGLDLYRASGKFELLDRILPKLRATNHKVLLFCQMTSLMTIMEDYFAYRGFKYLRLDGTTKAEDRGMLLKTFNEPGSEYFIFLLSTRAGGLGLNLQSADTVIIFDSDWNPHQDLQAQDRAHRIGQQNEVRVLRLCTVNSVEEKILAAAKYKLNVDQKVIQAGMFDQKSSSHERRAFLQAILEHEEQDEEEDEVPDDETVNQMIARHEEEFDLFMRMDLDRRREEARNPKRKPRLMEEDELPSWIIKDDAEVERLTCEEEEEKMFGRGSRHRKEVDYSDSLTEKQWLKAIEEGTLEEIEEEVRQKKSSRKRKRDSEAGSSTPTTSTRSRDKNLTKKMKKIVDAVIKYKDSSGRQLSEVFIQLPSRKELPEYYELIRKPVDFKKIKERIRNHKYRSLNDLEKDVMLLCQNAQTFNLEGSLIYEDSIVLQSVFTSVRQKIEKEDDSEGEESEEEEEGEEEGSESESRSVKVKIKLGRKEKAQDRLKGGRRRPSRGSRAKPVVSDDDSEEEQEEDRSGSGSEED
# UniProt E9Q4N7: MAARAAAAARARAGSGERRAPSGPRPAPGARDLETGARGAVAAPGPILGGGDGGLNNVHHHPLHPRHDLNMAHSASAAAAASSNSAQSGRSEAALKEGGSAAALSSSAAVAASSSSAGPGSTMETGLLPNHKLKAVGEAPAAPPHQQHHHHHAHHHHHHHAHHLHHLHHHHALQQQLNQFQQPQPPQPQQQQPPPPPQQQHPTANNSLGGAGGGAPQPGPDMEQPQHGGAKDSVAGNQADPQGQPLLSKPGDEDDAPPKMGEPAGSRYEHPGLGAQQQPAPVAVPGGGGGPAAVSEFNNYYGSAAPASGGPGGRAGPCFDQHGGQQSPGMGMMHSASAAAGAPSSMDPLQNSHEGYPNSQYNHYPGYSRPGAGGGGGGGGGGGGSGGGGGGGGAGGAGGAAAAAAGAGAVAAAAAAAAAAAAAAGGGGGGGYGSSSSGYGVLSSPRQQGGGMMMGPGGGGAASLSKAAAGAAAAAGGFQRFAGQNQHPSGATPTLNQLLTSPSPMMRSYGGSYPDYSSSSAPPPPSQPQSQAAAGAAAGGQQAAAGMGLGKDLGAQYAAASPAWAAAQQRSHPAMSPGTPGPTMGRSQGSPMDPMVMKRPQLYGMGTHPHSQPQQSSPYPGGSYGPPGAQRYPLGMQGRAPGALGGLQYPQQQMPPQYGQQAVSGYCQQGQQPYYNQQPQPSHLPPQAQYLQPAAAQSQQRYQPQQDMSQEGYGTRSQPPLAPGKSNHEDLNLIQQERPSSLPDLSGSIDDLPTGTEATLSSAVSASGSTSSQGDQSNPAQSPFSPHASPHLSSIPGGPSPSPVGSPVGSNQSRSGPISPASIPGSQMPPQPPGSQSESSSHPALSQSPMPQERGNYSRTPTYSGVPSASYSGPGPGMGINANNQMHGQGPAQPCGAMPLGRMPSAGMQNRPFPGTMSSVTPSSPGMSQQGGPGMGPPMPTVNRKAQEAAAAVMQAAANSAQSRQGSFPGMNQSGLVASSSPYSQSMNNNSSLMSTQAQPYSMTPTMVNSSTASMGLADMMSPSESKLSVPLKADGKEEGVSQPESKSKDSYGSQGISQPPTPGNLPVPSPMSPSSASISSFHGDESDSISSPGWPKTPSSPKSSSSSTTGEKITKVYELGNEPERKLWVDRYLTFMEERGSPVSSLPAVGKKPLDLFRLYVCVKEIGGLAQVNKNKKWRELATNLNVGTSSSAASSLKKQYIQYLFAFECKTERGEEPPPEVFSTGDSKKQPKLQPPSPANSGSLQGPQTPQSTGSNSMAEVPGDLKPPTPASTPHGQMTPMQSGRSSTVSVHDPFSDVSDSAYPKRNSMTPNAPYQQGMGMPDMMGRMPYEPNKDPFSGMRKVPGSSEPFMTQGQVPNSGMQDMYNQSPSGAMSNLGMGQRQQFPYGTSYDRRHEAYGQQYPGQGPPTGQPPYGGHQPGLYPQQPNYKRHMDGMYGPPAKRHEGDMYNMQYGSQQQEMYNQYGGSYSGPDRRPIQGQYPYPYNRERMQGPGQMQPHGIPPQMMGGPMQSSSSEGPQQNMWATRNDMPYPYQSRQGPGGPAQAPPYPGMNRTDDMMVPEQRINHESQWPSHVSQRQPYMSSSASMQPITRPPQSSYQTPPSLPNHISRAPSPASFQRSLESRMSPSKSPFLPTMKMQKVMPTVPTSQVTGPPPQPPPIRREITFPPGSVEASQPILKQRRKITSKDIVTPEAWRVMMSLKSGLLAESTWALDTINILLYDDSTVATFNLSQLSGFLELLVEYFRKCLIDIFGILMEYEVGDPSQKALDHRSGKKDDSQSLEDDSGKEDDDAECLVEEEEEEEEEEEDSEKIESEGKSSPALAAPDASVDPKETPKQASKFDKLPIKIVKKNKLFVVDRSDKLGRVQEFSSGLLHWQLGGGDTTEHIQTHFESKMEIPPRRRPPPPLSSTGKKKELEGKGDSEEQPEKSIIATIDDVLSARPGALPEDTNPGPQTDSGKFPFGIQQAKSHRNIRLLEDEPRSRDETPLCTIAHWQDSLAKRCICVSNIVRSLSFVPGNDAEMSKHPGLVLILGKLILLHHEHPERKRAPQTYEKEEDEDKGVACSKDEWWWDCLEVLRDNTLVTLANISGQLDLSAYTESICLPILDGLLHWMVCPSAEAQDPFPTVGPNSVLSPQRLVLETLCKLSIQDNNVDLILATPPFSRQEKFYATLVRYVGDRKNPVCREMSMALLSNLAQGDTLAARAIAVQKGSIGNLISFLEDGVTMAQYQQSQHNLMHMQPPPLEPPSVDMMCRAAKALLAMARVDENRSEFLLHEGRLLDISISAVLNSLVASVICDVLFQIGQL
# How the values were obtained:
# [1] = target: Smarca4/Brg1 with the AT-hook deleted (ΔAT), HA-tagged (mouse (endogenous in mESCs)) (UniProt Q3TKT4); test: affinity purification with mass spectrometry; anti-HA agarose beads on nuclear extract of primed mESCs with HA-tagged Brg1 (WT or ΔAT), eluted with HA peptide; DIA mass spectrometry
# [2] = target: Smarca4/Brg1, wild type, HA-tagged (mouse (endogenous in mESCs)) (UniProt Q3TKT4); test: as above
binding [1],binding [2],Substance
binds,binds,Arid1a subunit of mouse SWI/SNF (from UniProt A2BH40 1-2283)
binds,binds,Arid1b subunit of mouse SWI/SNF (from UniProt E9Q4N7 1-2306)

# Reference: PMC10403523
